PubChem BioAssay AID1508587 | Peter MacCallum Cancer Centre | 2020
Assay: 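Follow-up of vemurafenib sensitisers scored by lactate made per cell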 (follow-up of hits). Cells: human WM266.4 melanoma cells with a BRAF V600 mutation. Reagent: single siRNA against human genes, 25 nM. Time to read-out: 96 h. Conditions: vemurafenib 300 nM (about IC25), given 48 h after transfection for 48 h. Measured: 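Per-cell lactate from absorbance divided by DAPI nucleus counts, compared with and without vemurafenib, relative to non-targeting siRNA, mean of 2 replicates; nuclear counts also give cell number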. Reading the numbers: lactate per cell, drug vs no drug: higher = less drug-induced drop in lactate per cell. Call rule: 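a duplex is active when its lactate-per-cell ratio with versus without drug falls under 0.55, i.e. 2 SD below non-targeting; a gene is confirmed if 2 or more of 4 duplexes pass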.
Shown is an unselected part of about 1,600 reagents. 623 of all reagents (39%) were called active. 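Calls are for each duplex; lactate ratios contain extreme outliers.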 Reagents against one gene are numbered here. Not all columns of the deposit are shown.

lactate per cell, drug vs no drug, by gene and reagent
MARK1 (microtubule affinity regulating kinase 1): #1 0.64 inactive; #2 0.55 inactive; #3 0.56 inactive; #4 0.7 inactive
SMG6 (SMG6 nonsense mediated mRNA decay factor): #1 0.62 inactive; #2 0.54 active; #3 0.6 inactive; #4 0.71 inactive
PPHLN1 (periphilin 1): #1 0.54 active; #2 0.8 inactive; #3 0.66 inactive; #4 0.52 active
TNFRSF10D (TNF receptor superfamily member 10d): #1 1.13 inactive; #2 0.5 active; #3 0.61 inactive; #4 0.67 inactive

A few values from the list.
SMG6 (SMG6 nonsense mediated mRNA decay factor) #4, lactate per cell, drug vs no drug: 0.71
PPHLN1 (periphilin 1) #3, call = inactive
For “lactate per cell, drug vs no drug”, MARK1 (microtubule affinity regulating kinase 1) #2 shows 0.55
TNFRSF10D (TNF receptor superfamily member 10d) #4, lactate per cell, drug vs no drug = 0.67
Under “call”, TNFRSF10D (TNF receptor superfamily member 10d) #1 has inactive
For “call”, MARK1 (microtubule affinity regulating kinase 1) #3 has inactive

Further reagents follow:
lactate per cell, drug vs no drug, by gene and reagent
CT47A2 (cancer/testis antigen family 47 member A2): #1 0.6 inactive; #2 0.84 inactive; #3 0.8 inactive; #4 0.39 active
HEPH (hephaestin): #1 0.62 inactive; #2 0.47 active; #3 0.36 active; #4 0.62 inactive
KCTD18 (potassium channel tetramerization domain containing 18): #1 0.64 inactive; #2 0.67 inactive; #3 0.45 active; #4 0.42 active
ARMCX5 (armadillo repeat containing X-linked 5): #1 0.23 active; #2 0.48 active; #3 0.4 active; #4 0.62 inactive
PLEC (plectin): #1 0.8 inactive; #2 0.58 inactive; #3 0.6 inactive; #4 0.6 inactive
